Some results were stated once for a whole list of compounds, not compound by compound. For some assays here: For at least one compound, name, drawing or mass did not settle the structure.
How the values were obtained:
bacteria = experiment: Minimum Inhibitory Concentration (MIC) assay, bacteria; format: cell-based; settings: complete inhibition of visible growth
Description: (§1) These assays are adapted from NCCLS protocols M7-A4 and M27-A (NCCLS vol 17:9 and vol 17:2) as modified by Sandven, S. Clin. Micro. (1999) 37:12, p. 3856–3859. MIC values for Aspergillus fumigatus were determined using NCCLS protocol M38-P.
(§2) All compounds were dissolved in 100% DMSO to a stock concentration of 10 mM and use fresh or stored at −80° C. Stock compounds were kept frozen until needed and used freshly with no more then one freeze-thaw cycle. When used for test purposes, compounds were diluted in the appropriate media depending on the organism being tested.
(§3) For yeast and aspergillus species, seven 1:2 serial dilutions of compound in appropriate media buffered with MOPS at pH 7.0 were prepared such that the final starting test compound concentrations were 50.0 uM for yeast and 50 uM aspergillus species. For bacteria, dilutions were made in growth media used for the particular bacteria being tested.
Inoculums are made in the same manner as yeast except all dilutions are made in normal saline, with a final dilution of 1:200 and an inoculum of 10 μL.

[1] = system: yeast and aspergillus species; experiment: Minimum Inhibitory Concentration (MIC) assay, yeast and filamentous fungi; format: cell-based, Candida albicans; Aspergillus fumigatus; settings: complete inhibition of visible growth, 48 h at 35 C
Description: as §1, §2, §3
Five well-separated colonies from a 24 hr Sabouraud Dextrose plate incubated at 35 C were picked and resuspended into 5.0 ml of normal saline. The O.D.530 was read and the culture was adjusted to 0.5 McFarland units with normal saline. A 1:2000 dilution was made with RPMI 1640 media buffered with MOPS at pH 7.0 and 100 μL of this inoculum preparation was added to an equal volume of test compound-containing media. […]

Compound | MIC (antibacterial activity) (bacteria) | MIC (antifungal activity) [1]
CCNC(=N)CNC(=O)c1cc(NC(=O)c2ccc(C(=O)Nc3cc(C(=O)NCC(=N)NCC)n(CC4CC4)c3)cc2)cn1CC1CC1 [Compound 285, N,N′-Bis-{1-cyclopropylmethyl-5-[(N-ethylcarbamimidoylmethyl)-carbamoyl]-1H-pyrrol-3-yl}-terephthalamide] | < 45.5 µM | 
2,5-Dihydro-thiophene-2,5-dicarboxylic acid bis-{[5-(carbamimidoylmethyl-carbamoyl)-1-cyclopropylmethyl-1H-pyrrol-3-yl]-amide} [Compound 286] |  | < 45.5 µM

Source: patent US7064218B2, “Aromatic compounds and poly(oxyalkylene) containing aromatic compounds possessing antibacterial, antifungal or antitumor activity” (Genelabs Technologies, Inc., priority 2001, dated 2006)
